Laboratory results: publication PMC10163288
The list shows a part of the results.

B1: il10ra_site1_normal_mot_HHH_b2_07145_000000158_0001_24_40_H_._HHH_b1_00992_0001_0000100009_0000002_0 (protein)
chain: SSSSEEEFKEFKKVIEELTRLTREGDEEEFERLFERLHRRLEEEGDEVRLLSLEFLYRRDSSSSS
B2: il10ra_site1_normal_mot_HHH_b2_01447_af2_000000258_0001_1_20_H_._HHH_b1_07315_0001_0000100015_0000001_0 (protein)
chain: SSSSDEENKEVMRLVRKASELDQNGDPEEARRVLEEAEQLAEELGNHALRFSLEHLLRLLSSSSS
B3: il10ra_site1_sap_12_mot_HHH_b2_00092_000000181_0001_22_39_H_._HHH_b2_07100_0001_0000300011_0000002_0_0001_af2pred_dldesign_0_af2pred (protein)
chain: SSSSSLNQKITDLIKEALDALAEGKPEEARKLLDEAEELAKKAKSPIMEHAIAAARRAVESSSSS
B4: il10ra_site1_normal_mot_HHH_b2_02053_af2_000000006_0001_3_19_H_._HHH_b1_01295_af2_0001_0000300014_0000002_0 (protein)
chain: SSSSSDLSEEIYELIREALELRARGNPEEAEEVLERARELAEELGSEWLLRQIEFILRLLSSSSS
B5: il10ra_site1_normal_mot_HHH_b2_07521_000000141_0001_20_37_H_._HHH_b1_07534_0001_0000100004_0000001_1_af2pred_0001 (protein)
chain: SSSSSDEEFIELSLKFLKFLLEQGDERAAKIIFHAIEELIKRINDEELQRRLEELEEEIHSSSSS
B6: il10ra_site1_normal_mot_HHH_b2_00277_af2_000000172_0001_1_17_H_._HHH_b2_03853_0001_0000100002_0000001_0_af2pred_dldesign_0_af2pred (protein)
chain: SSSSDPAAVAAEVDALLAEARKEEDREKRSHLLLQAYSVANAANDAALVARVEAEAKRLASSSSS
B7: il10ra_site1_sap_24_mot_HHH_b1_05254_000000006_0001_1_19_H_._HHH_b1_01900_0001_0000400044_0000001_1_0001_af2pred_0001 (protein)
chain: SSSSSEEEERVRLALRFAEWLLEQGDKEAAEFALKAAEEIAKRIGDEELLEKVEELLEELSSSSS
B8: il10ra_site1_sap_15_mot_HHH_b2_02497_000000141_0001_1_20_H_._HHH_b1_08018_0001_0000200009_0000001_0_0001 (protein)
chain: SSSSSSEKEEAEELLEEAERLAEEGNPEEAARLLYEAARLAAKAGDRELAERIVHLFIRLSSSSS
B9: il10ra_site1_sap_10_mot_HHH_b1_08742_000000038_0001_1_20_H_._HHH_b1_02292_0001_0000200017_0000001_0_0001 (protein)
chain: SSSSNASEEVFRILKRVAELDNEGDHEEAEELLEEAERLAREANSDVFLMQVEYLQRLLNSSSSS
B10: il10ra_site1_sap_12_mot_HHH_b1_03270_000000208_0001_21_37_H_._HHH_b2_00361_af2_0001_0000600006_0000001_1_0001 (protein)
chain: SSSSSSRREANEEAWELIREALHIDDPEEAEELLREALRLAEEANSQAFEFAIKLALRQLSSSSS
B11: il10ra_site1_normal_mot_HHH_b1_06789_af2_000000041_0001_1_20_H_._HHH_b2_01909_0001_0000100005_0000001_0 (protein)
chain: SSSSSSVEFLVRQALRAVKNLLEAGDPERAEEAAKIAENLAEQANNPEAQELVERVEKELSSSSS
B12: il10ra_site1_normal_mot_HHH_b2_04681_000000155_0001_43_57_H_._HHH_b1_06444_af2_0001_0000100006_0000002_0 (protein)
chain: SSSSDEEFREYRELVEKISQALNKGDRERARELLEELEEIAEELNNHILKAQVEFLRRLVNSSSS
B13: il10ra_site1_sap_22_mot_39ab2cb694c8b9c1dc7e65c0d672c93e_0001_000000036_0001_53_65_H_._HHH_b1_06179_0001_0000300021_0000001_0_0001_af2pred_0001 (protein)
chain: SSSSSDEDEEVIRLIRRILELLHKGDEEEAEELLERAKRIAEEAGNPIALVILEKIEEELKSSSS
B14: il10ra_site1_normal_mot_cff26900b2948c323735a169404cbef0_0001_1_000000271_0001_18_33_H_._HHH_b1_05248_0001_0000600022_0000002_0 (protein)
chain: SSSSDEYEEILREYEEEAEELGNEDARKMLRLATESAKRAGATEEDLRRQLRYALEQVEKGSSSS
B15: il10ra_site1_normal_mot_HHH_b1_05400_af2_000000077_0001_23_40_H_._HHH_b2_07961_0001_0000200018_0000001_0_af2pred_0001 (protein)
chain: SSSSSEEEERLKELLERLKELLEEGDEEEFIELAFEALRLALRVRDEEVLEELDRLLASLYSSSS
B16: il10ra_site1_sap_16_mot_HHH_b1_05329_000000008_0001_43_56_H_._HHH_b1_00148_af2_0001_0000500018_0000002_0_0001_af2pred_0001 (protein)
chain: SSSSDEREKDLERLIELLKRLVELGDEENARLAARILKELAKFANDPEAEREIEELLQEVTSSSS
B17: il10ra_site1_normal_mot_HHH_b2_06979_000000158_0001_42_57_H_._HHH_b2_06088_af2_0001_0000400027_0000001_0 (protein)
chain: SSSSDLNEELYEILREAAELLANGNPEEARELLEKAEQIAEENNNELLLINARYLFRDVEGSSSS
B18: il10ra_site1_sap_26_mot_HHH_b2_05323_000000159_0001_1_18_H_._HHH_b2_01700_0001_0000300026_0000001_0_0001 (protein)
chain: SSSSDRELREVYELIRKAFELARRGNPEEAEELLEEARRLAEEANSPVFRFAIRALLENLSSSSS
B19: il10ra_site1_normal_mot_HHH_b1_06914_000000280_0001_1_18_H_._HHH_b1_05715_0001_0000300028_0000002_0 (protein)
chain: SSSSDVAHRLYELSRRAAELLANGNPEEAREVVEEAEELAEENNNPVLLFTIRHLLQSINSSSSS
B20: il10ra_site1_normal_mot_HHH_b1_06994_000000193_0001_40_55_H_._HHH_b2_07112_0001_0000100014_0000002_0 (protein)
chain: SSSSSQEEELVRAALELARQAYEAGDPEAARFLLEALLLALEKEGNEELVEEVRELLEELSSSSS
B21: il10ra_site1_sap_23_mot_HHH_b1_01939_000000180_0001_37_52_H_._HHH_b1_04531_0001_0000400025_0000001_0_0001 (protein)
chain: SSSSTQEVFRALEELIQALSEGDEERFEELLEEVRRLAEENNSWVFLWIIEMLERLFEEEHSSSS
B22: il10ra_site1_sap_27_mot_HHH_b1_01481_000000004_0001_1_20_H_._HHH_b2_02141_0001_0000300015_0000001_0_0001 (protein)
chain: SSSSDIEEVMRLIEEASELDQNGNKEEAEKLLEEAEKLAEELGNWALLFAIRHALRVVRNSSSSS
B23: il10ra_site1_sap_17_mot_HHH_b1_07380_000000129_0001_1_20_H_._HHH_b1_06890_0001_0000200026_0000001_0_0001 (protein)
chain: SSSSSEELERYVKLSLRFARWLYEAGDPEAARFVVEAALDTARRENNEELVEELEELLRQLSSSS
B24: il10ra_site1_sap_13_mot_HHH_b2_06664_af2_000000263_0001_19_36_H_._HHH_b1_07898_0001_0000100002_0000001_0_0001 (protein)
chain: SSSSDAEEVVELLFRAIELLYRGDKEEAEELVEEAKEIAEESNDPELQRYVEIAEHFVRAHSSSS
B25: il10ra_site1_normal_mot_HHH_b2_00800_af2_000000047_0001_1_20_H_._HHH_b1_06326_0001_0000400037_0000001_0 (protein)
chain: SSSSQEAYEASREAIEEALELYREGNPEEAREVLEELLELLRELGNENASATVEVLLRLLSSSSS
B26: il10ra_site1_sap_24_mot_HHH_b2_04050_000000291_0001_1_20_H_._HHH_b2_07950_af2_0001_0000400018_0000002_0_0001 (protein)
chain: SSSSSSQEALELSLEAFRAALRGDEERARELIEEAEELAQEEGDERLLKILEDLLKALSSSSSSS
B27: il10ra_site1_sap_18_mot_104c758fc23488854646035ccb2100c6_0001_000000282_0001_15_29_H_._2760df52dd5e0aaeaf25f6a5db4fc44c_0001_1_0001_0000200005_0000001_0_0001 (protein)
chain: SSSSSTQEVYEALERLAKLAHEGDEEEFKEVYEEARRLIEEEGNRLFQVQLEFLEELFNSSSSSS
B28: il10ra_site1_sap_23_mot_HHH_eva_0376_af2_000000153_0001_25_41_H_._HHH_b1_00695_0001_0000100002_0000001_0_0001 (protein)
chain: SSSSSDEEVEEEVERLLEEAKEIDDPRELSRLLQEAVRFAIQLQDAELLQKVWEVVHRLASSSSS
B29: il10ra_site1_sap_24_mot_HHH_b1_04771_000000013_0001_40_56_H_._HHH_b2_02918_af2_0001_0000100007_0000001_0_0001 (protein)
chain: SSSSDDEERVKQAIRFARWLLENGDKEAAKRIVEAAQDIARKGGNEELVQELEELEEEIKSSSSS
B30: il10ra_site1_normal_mot_HHH_b1_03859_af2_000000004_0001_44_57_H_._HHH_b2_07280_0001_0000300015_0000001_0 (protein)
chain: SSSSSSDEERYVKLALRFAKRIEDEEARRFILRAAEEIAKRANDEELLEEVEEVIRELSSSSSSS
B31: il10ra_site1_normal_mot_HHH_b1_05056_000000217_0001_1_20_H_._HHH_b2_02585_0001_0000100003_0000001_0 (protein)
chain: SSSSSDEEEREEVEELLEEAKRIEDRREVAELLQKATHLALRLQDPELLREVWRVVQEWASSSSS
B32: il10ra_site1_normal_mot_HHH_b2_07336_af2_000000224_0001_1_17_H_._HHH_b2_00864_0001_0000100004_0000001_0_af2pred_dldesign_0_af2pred (protein)
chain: SSSSADEVAELLREASRLLFEGELEKALELVEKARELAEAAGDPELIKAVDIVENAVLANSSSSS
B33: il10ra_site1_sap_16_mot_39a7b8d0c4c3fc04bafbda6ce6101d3a_0001_1_af2_000000014_0001_34_48_H_._HHH_b1_05621_0001_0000900026_0000001_0_0001 (protein)
chain: SSSSDEEEERIEELLEEAERLIEEGNPEEALEILLEATRLALKLGNEELLQRVWELIKRLESSSS
B34: il10ra_site1_normal_mot_HHH_b1_07527_000000076_0001_1_15_H_._HHH_b2_06947_af2_0001_0000400043_0000001_0 (protein)
chain: SSSSNAADEVYELIREAMELLRNGNPEEAKEVLEEAERLAEENNNILLLWQIEFALREIDSSSSS
B35: il10ra_site1_sap_28_mot_HHH_b2_08004_000000101_0001_1_17_H_._HHH_b1_04916_af2_0001_0000100001_0000001_0_0001_af2pred_0001 (protein)
chain: SSSSTAVEEVLRAIERVLELLHRGDEEEAEKLAEEALEIAREAGNLNLRALLEAMLRRARSSSSS
B36: il10ra_site1_sap_13_mot_HHH_b2_08287_af2_000000247_0001_1_16_H_._HHH_b2_05895_af2_0001_0000500020_0000002_0_0001 (protein)
chain: SSSSSEDERYLELSEMFARRLYENGDPEAARAILKAAIEIARKANDEETLERLEELLEEIGSSSS
B37: il10ra_site1_sap_21_mot_HHH_b1_05185_000000011_0001_22_39_H_._HHH_b1_07240_0001_0000600038_0000002_0_0001 (protein)
chain: SSSSSEELRRIMELIRRAAELDQNGNPEEARKLLEEAEELAEEAGNWAALFAVRHLLRIVNSSSS

molecular target: il10ra, Q13651; assay: yeast display titration

Apparent Kd, inactive:
B1 no binding seen, B2 no binding seen, B3 no binding seen, B4 no binding seen, B5 no binding seen, B6 no binding seen, B7 no binding seen, B8 no binding seen, B9 no binding seen, B10 no binding seen, B11 no binding seen, B12 no binding seen, B13 no binding seen, B14 no binding seen, B15 no binding seen, B16 no binding seen, B17 > 583 nM, B18 no binding seen, B19 no binding seen, B20 no binding seen, B21 no binding seen, B22 no binding seen, B23 no binding seen, B24 no binding seen, B25 no binding seen, B26 no binding seen, B27 no binding seen, B28 no binding seen, B29 no binding seen, B30 no binding seen, B31 no binding seen, B32 no binding seen, B33 no binding seen, B34 no binding seen, B35 no binding seen, B36 no binding seen, B37 no binding seen
